Assay results as given in PubChem BioAssay (NCATS).
The inconclusive results got no clear call from the source; some entries with a clear call stand among them for comparison. Potencies of inconclusive entries are doubtful fits and often do not repeat. Activity calls are given as the source filed them. Calls follow the shape of the dose curve; as a rule, active = well fitted cell-killing curve with a large enough effect; inconclusive = small, poorly fitted or top-dose-only effect, or effect the other way; inactive = no such curve, though single readings can be large or run the other way.

Assay: Quantitative High-Throughput drug screen in 47 multiple myeloma cell lines against the NCATS MIPE library collection: JJN3_DSMZ cell viability assay (AID 1918966; also: nearly all actives have a fitted effect of over 50% in size)
Conditions: JJN3 myeloma cells viability, CellTiter-Glo ATP, 48 h; series mostly up to 45.8 µM
Excerpt: PI: Beverly A. Mock Ph.D.
Laboratory of Cancer Biology and Genetics,
Center for Cancer Research, National Cancer Institute,
National Institute of Health, Bethesda, Maryland
Drug resistance and disease progression are common in multiple myeloma (MM) patients, underscoring the need for new therapeutic combinations. […] We hypothesized that effective combinations would reduce MYC expression and enhance p16 activity. […] These preclinical data identify potentially useful drug combinations for evaluation in drug-resistant MM and reveal potential mechanisms of combined drug sensitivity.
Described herein is the primary MIPE qHTS used to cherrypick compounds. Validated compounds were then further tested for potential synergistic activiy.
[1] Peat TJ, Gaikwad SM, Dubois W, Gyabaah-Kessie N, Zhang S, Gorjifard S, Phyo Z, Andres M, Hughitt VK, Simpson RM, Miller MA, Girvin AT, Taylor A, Williams D, D'Antonio N, Zhang Y, Rajagopalan A, Flietner E, Wilson K, Zhang X, Shinn P, Klumpp-Thomas C, McKnight C, Itkin Z, Chen L, Kazandijian D, Zhang J, Michalowski AM, Simmons JK, Keats J, Thomas CJ, Mock BA. Drug combinations identified by high-throughput screening promote cell cycle transition and upregulate Smad pathways in myeloma. Cancer Lett. 2023 Aug 1;568:216284. doi: 10.1016/j.canlet.2023.216284. Epub 2023 Jun 24. PMID: 37356470; PMCID: PMC10408729.
SEQUENCE No. (e.g., 1, 2, 3, etc.); […] (e.g., Cells, Incubation, Reagent, etc.); VALUE and DESCRIPTION.
1; Cells; 5 uL; white, solid bottom 1536-well Greiner assay plate.
2; Compounds; 23 nL; Kalypsis pin tool (Wako USA) equipped with a 1536-well pin head to transfer to the assay plates.
3; Incubation; 48 hours; 37C incubation.
4; Reagent;5uL; CellTiter Glo (Promega).
5; Detector; 425V; Luminescence; Viewlux PerkinElmer.
NOTES (numbers refer to Sequence numbers above)
1. The cell-based screening methods employed in this study were like those previously published. Briefly, the corresponding myeloma cell lines were screened in 1,536-well plates with 500 cells, 5-uL per well for inhibition of cell viability (assessed by measuring ATP levels with CellTiterGlo).
2. NCATS MIPE 4.0 library of approved and investigational drugs were added using the Kalypsis pin tool. Wells treated with DMSO only for 100% viability and media only wells for 0% viability were used as controls.
3. The assay plates were covered and incubated for 48 hours in a 37C, 5% CO2 incubator with controlled humidity.
4. After 48 hours, CellTilter-GloTM luminescent substrate mix (Promega) reagent was added to the assay plate and plates we incubated for 5 min at room temperature.
5. Signal was measured as median relative luminescence units on a ViewLux (PerkinElmer) multiplate reader.
[1] Heske CM, Davis MI, Baumgart JT, Wilson K, Gormally MV, Chen L, Zhang X, Ceribelli M, Duveau DY, Guha R, Ferrer M, Arnaldez FI, Ji J, Tran HL, Zhang Y, Mendoza A, Helman LJ, Thomas CJ. Matrix Screen Identifies Synergistic Combination of PARP Inhibitors and Nicotinamide Phosphoribosyltransferase (NAMPT) Inhibitors in Ewing Sarcoma. Clin Cancer Res. 2017 Dec 1;23(23):7301-7311. doi: 10.1158/1078-0432.CCR-17-1121. Epub 2017 Sep 12. PMID: 28899971; PMCID: PMC6636827.
Potency is read from the fitted curve at half-maximal effect.

SMILES	Potency
CN(C)CC=CC(=O)Nc1cc2c(Nc3ccc(F)c(Cl)c3)ncnc2cc1O[C@H]1CCOC1	active: 4.69 µM
NC(=O)N1c2ccccc2CC(=O)c2ccccc21	inconclusive: 0.0105 µM [rising, full curve]
O=C(O)c1ccc2cc(-c3ccc(O)c(C45CC6CC(CC(C6)C4)C5)c3)ccc2c1	inconclusive: 33.2 µM [cytotoxic, single point]
NC1(c2ccc(-c3nc4ccn5c(=O)[nH]nc5c4cc3-c3ccccc3)cc2)CCC1	active: 5.26 µM
Cc1ccc2nc(NC(=O)CSc3nc4c(c(=O)n3-c3ccccc3)SCC4)sc2c1	inconclusive: 10.5 µM [cytotoxic, partial curve, poor fit]
O=C(Cc1ccc(-c2ccc(OCCN3CCOCC3)cc2)cn1)NCc1ccccc1	active: 0.132 µM
Cn1c(Nc2ccc(C(F)(F)F)cc2)nc2cc(Oc3ccnc(-c4ncc(C(F)(F)F)[nH]4)c3)ccc21	active: 16.6 µM
COc1ccc(C2=N[C@H](c3ccc(Cl)cc3)[C@H](c3ccc(Cl)cc3)N2C(=O)N2CCNC(=O)C2)c(OC(C)C)c1	inconclusive: 26.4 µM [cytotoxic, partial curve, poor fit]
CCS(=O)(=O)N1CC(CC#N)(n2cc(-c3ncnc4[nH]ccc34)cn2)C1	active: 11.8 µM
CC1(C)CNc2cc(NC(=O)c3cccnc3NCc3ccncc3)ccc21	inconclusive: 37.2 µM [cytotoxic, single point]
COc1cccc2cc(-c3nc(C4CCC(C(=O)O)CC4)n4ncnc(N)c34)[nH]c12 (stereo not given)	active: 1.05 µM
COc1cc(C(=O)NS(=O)(=O)c2ccccc2C)ccc1Cc1cn(C)c2ccc(NC(=O)OC3CCCC3)cc12	inconclusive: 16.6 µM [cytotoxic, partial curve, poor fit]
C[C@H]1[C@@H](OC(=O)CCC(=O)O)O[C@@H]2O[C@@]3(C)CC[C@@H]4[C@H](C)CC[C@@H]1[C@@]24OO3	active: 1.48 µM
Cc1c(NC(=O)OC[C@@H]2COCCN2)cn2ncnc(Nc3ccc4c(cnn4Cc4cccc(F)c4)c3)c12	inconclusive: 0.0053 µM [cytotoxic, full curve, poor fit]
CN1C[C@H]2c3ccccc3Oc3ccc(Cl)cc3[C@@H]2C1	inconclusive: 0.0012 µM [rising, full curve, poor fit]
COc1cc(C(C)C)c2c(c1)S(=O)(=O)N(COc1cc(=O)n3cccc(OCCN4CCCCC4)c3n1)C2=O	active: 5.26 µM
Cc1c(CCOc2ccc(C(=O)O)cc2)c2cc(Cl)ccc2n1C(c1ccccc1)c1ccccc1	inconclusive: 13.2 µM [cytotoxic, partial curve, poor fit]
C[C@H](NC(=O)Cc1cc(F)cc(F)c1)C(=O)N[C@@H]1C(=O)N(C)c2ccccc2-c2ccccc21	inconclusive: 0.0037 µM [rising, full curve, poor fit]
Cc1cccc(C=NNc2cc(N3CCOCC3)nc(OCCc3ccccn3)n2)c1	inconclusive: 23.5 µM [cytotoxic, partial curve, poor fit]
COc1cc2nccc(Oc3ccc(NC(=O)NC4CC4)c(Cl)c3)c2cc1C(N)=O	active: 1.48 µM

Three of the compounds above, bar-delimited.
SMILES | Potency
CN(C)CC=CC(=O)Nc1cc2c(Nc3ccc(F)c(Cl)c3)ncnc2cc1O[C@H]1CCOC1 | active: 4.69 µM
C[C@H]1[C@@H](OC(=O)CCC(=O)O)O[C@@H]2O[C@@]3(C)CC[C@@H]4[C@H](C)CC[C@@H]1[C@@]24OO3 | active: 1.48 µM
Cc1c(NC(=O)OC[C@@H]2COCCN2)cn2ncnc(Nc3ccc4c(cnn4Cc4cccc(F)c4)c3)c12 | inconclusive: 0.0053 µM [cytotoxic, full curve, poor fit]

Next structures.

SMILES	Potency
CC(O)(C#Cc1ccc2c(c1)N(c1nc(N)ncc1Cl)CC2)c1nccs1 (stereo not given)	inconclusive: 16.6 µM [cytotoxic, partial curve, poor fit]
COc1cc2c(Oc3ccc(-c4cnc(Nc5ccc(F)cc5)n(C)c4=O)cc3F)ccnc2cc1OCCCN1CCOCC1	active: 11.8 µM
CCn1nnc2c(N3CCOCC3)nc(-c3ccc(NC(=O)Nc4ccc(C(=O)N5CCN(C)CC5)cc4)cc3)nc21	active: 0.0187 µM
CCCCCCCCc1ccc(CCC(N)(CO)CO)cc1	active: 18.7 µM
NC(=O)c1cccc2cn(-c3ccc([C@@H]4CCCNC4)cc3)nc12	inconclusive: 0.526 µM [cytotoxic, full curve, poor fit]
Nc1nc(Cl)nc2c1ncn2[C@H]1C[C@H](O)[C@@H](CO)O1	inconclusive: 4.69 µM [cytotoxic, full curve, poor fit]
O=C(NCc1ccccc1)[C@H](Cc1ccccc1)NC(=O)[C@@H]1O[C@@H]1C(=O)NCCc1ccc(O)cc1	inconclusive: 0.0017 µM [cytotoxic, full curve, poor fit]
COC(=O)C=CC(=O)OC	inconclusive: 3.72 µM [rising, full curve, poor fit]
N#Cc1ccc(COC[C@H]2O[C@@H](n3c(NCc4ccc(Cl)c(Cl)c4)nc4c(N)ncnc43)[C@@H](O)[C@@H]2O)cc1	active: 0.469 µM
CC(C)(C)c1cnc(CSc2cnc(NC(=O)C3CCNCC3)s2)o1	active: 0.0833 µM
COC(=O)[C@]12CCC(C)(C)C[C@@H]1[C@@H]1C(=O)C=C3[C@@]4(C)C=C(C#N)C(=O)C(C)(C)[C@@H]4CC[C@@]3(C)[C@]1(C)CC2	active: 0.526 µM
CCN(c1ccccc1)c1cc(NC)[n+](C)c(C)n1	inconclusive: 14.8 µM [cytotoxic, partial curve, poor fit]
O=C(C=Cc1ccc(CN(CCO)CCc2c[nH]c3ccccc23)cc1)NO	active: 0.0935 µM
COc1ccc(C=Cc2cc(OC)c(OC)c(OC)c2)cc1O	inconclusive: 0.0021 µM [cytotoxic, full curve]
Cn1cncc1[C@@](N)(c1ccc(Cl)cc1)c1ccc2c(c1)c(-c1cccc(Cl)c1)cc(=O)n2C	active: 8.33 µM
N#Cc1c(C2CCNCC2)cc(-c2c(O)cccc2OCC2CC2)nc1N	active: 18.7 µM
C=C1C(=CC=C2CCC[C@]3(C)[C@@H]([C@H](C)C=C[C@H](C)C(C)C)CC[C@@H]23)C[C@@H](O)C[C@@H]1O	active: 0.833 µM
CCCCOc1ccc(CC(=O)NO)cc1	inconclusive: 0.833 µM [cytotoxic, full curve, poor fit]
CCN(CC)CCNC(=O)c1c(C)[nH]c(C=C2C(=O)Nc3ccc(F)cc32)c1C	active: 6.05 µM
CC(C)=CCCC(C)=CCCC(C)=CCSc1ccccc1C(=O)O	active: 1.18 µM
